Data as given in patent US7932290B2, “Method for the treatment of metabolic disorders” (Wellstat Biologics Corporation, priority 2003, dated 2011).
At least one structure is not confirmed: it was looked up by name or label, or the drawing left a doubt.

Test system: male ob/ob mouse model of Type II diabetes
Test: Antidiabetic effects in ob/ob mice (serum chemistry after 2 weeks daily oral dosing)
Assay type: in vivo
Design: unit not given here
Conditions: 60 mg/kg
Description: Obese (ob/ob) mice have a defect in the protein leptin, a regulator of appetite and fuel metabolism, leading to hyperphagia, obesity and diabetes.
Male obese (ob/ob homozygote) C57BL/6J mice, approximately 8 weeks of age, were obtained from Jackson Labs (Bar Harbor, Me.) and randomly assigned into groups of 5 animals each such that the body weights (45-50 g) and serum glucose levels (≧300 mg/dl in fed state) were similar between groups. A minimum of 7 days was allowed for adaptation after arrival. All animals were maintained under controlled temperature (23° C.), relative humidity (50±5%) and light (7:00-19:00), and allowed free access to standard chow (Formulab Diet 5020 Quality Lab Products, Elkridge, Md.) and water.
Treatment cohorts were given daily oral doses of vehicle (1% hydroxypropyl-methylcellulose), Compounds BI, CF, CA, CB, CC, or CD for 2 weeks. At the end of the treatment period 100 μl of venous blood was withdrawn in a heparinized capillary tube from the retro-orbital sinus of ob/ob mice for serum chemistry analysis.

Q: `Cc1cccc(C)c1COc1cccc(C(C=O)CC(N)=O)c1` (stereo not shown) [CC, 3-(3-(2,6,-Dimethylbenzyloxy)phenyl)-4-oxobutyramide] was tested. Which “Free Fatty Acids ± SEM” value did it give?
A: Its value is 2043.6. ± 285.0.
